Laboratory results: the supplement of paper PMC10849652
The list shows a part of the results.

The chains behind the UniProt entries cited, without tags or fusion partners. Where a name states a change or a piece, a line headed by the entry shows the natural chain unless it says otherwise.
UniProt O43766: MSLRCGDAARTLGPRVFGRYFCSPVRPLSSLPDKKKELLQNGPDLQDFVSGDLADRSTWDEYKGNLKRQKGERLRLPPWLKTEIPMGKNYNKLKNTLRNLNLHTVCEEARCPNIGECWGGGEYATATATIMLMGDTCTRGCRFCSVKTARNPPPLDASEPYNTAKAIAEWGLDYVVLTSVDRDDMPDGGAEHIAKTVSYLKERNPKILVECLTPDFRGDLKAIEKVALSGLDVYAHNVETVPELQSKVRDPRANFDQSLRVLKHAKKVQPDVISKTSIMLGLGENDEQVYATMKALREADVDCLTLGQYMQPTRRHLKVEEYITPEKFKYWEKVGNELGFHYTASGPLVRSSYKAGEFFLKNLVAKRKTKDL
UniProt Q9H008: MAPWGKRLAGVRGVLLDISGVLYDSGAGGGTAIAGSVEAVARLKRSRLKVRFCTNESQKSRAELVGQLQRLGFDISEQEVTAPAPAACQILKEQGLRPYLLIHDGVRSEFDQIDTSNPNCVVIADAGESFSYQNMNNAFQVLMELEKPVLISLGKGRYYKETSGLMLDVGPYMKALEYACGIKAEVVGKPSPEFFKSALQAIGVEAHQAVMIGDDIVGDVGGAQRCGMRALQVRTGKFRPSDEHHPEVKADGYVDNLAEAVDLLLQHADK
UniProt Q6UWE0: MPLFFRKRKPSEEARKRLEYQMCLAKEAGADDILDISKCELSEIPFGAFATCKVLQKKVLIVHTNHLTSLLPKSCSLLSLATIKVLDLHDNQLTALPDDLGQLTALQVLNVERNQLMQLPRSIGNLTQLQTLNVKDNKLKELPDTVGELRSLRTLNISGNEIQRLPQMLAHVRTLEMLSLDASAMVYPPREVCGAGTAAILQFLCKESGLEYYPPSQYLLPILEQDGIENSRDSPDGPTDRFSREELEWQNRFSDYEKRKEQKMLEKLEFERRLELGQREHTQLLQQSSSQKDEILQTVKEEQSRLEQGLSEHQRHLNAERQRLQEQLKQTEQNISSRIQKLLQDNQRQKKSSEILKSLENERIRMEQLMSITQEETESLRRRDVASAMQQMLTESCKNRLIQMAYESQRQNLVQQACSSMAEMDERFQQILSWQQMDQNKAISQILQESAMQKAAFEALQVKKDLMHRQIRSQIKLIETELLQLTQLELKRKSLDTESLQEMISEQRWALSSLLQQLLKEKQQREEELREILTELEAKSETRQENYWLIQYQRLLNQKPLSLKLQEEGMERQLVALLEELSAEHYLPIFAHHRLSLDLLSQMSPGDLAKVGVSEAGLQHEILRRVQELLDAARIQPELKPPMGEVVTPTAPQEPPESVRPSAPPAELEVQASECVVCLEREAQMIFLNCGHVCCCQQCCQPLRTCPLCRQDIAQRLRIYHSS
UniProt P36776: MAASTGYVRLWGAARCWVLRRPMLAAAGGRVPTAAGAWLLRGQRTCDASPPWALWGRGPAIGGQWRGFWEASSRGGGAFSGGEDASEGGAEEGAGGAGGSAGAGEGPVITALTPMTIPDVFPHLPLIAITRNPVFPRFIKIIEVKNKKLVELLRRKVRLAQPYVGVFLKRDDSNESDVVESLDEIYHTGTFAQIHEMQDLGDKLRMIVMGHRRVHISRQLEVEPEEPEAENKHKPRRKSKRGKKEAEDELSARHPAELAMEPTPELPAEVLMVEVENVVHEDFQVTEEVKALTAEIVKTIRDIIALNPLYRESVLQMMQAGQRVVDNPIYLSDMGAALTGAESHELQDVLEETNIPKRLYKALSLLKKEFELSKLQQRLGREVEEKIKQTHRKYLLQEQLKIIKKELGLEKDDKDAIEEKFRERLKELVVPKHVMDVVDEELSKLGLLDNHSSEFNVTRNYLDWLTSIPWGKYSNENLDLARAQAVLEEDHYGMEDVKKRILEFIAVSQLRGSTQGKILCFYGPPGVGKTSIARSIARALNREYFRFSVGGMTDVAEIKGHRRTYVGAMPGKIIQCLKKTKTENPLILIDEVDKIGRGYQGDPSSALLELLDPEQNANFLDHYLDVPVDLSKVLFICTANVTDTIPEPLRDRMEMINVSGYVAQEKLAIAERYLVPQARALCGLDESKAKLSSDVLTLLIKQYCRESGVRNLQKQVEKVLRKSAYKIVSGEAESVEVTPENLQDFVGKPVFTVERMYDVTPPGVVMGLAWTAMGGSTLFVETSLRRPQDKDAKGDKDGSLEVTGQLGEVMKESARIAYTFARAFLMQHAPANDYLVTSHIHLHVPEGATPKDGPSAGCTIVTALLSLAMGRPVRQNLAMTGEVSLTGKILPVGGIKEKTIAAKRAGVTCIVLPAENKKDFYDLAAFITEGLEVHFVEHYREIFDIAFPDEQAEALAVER
UniProt Q6P1A2: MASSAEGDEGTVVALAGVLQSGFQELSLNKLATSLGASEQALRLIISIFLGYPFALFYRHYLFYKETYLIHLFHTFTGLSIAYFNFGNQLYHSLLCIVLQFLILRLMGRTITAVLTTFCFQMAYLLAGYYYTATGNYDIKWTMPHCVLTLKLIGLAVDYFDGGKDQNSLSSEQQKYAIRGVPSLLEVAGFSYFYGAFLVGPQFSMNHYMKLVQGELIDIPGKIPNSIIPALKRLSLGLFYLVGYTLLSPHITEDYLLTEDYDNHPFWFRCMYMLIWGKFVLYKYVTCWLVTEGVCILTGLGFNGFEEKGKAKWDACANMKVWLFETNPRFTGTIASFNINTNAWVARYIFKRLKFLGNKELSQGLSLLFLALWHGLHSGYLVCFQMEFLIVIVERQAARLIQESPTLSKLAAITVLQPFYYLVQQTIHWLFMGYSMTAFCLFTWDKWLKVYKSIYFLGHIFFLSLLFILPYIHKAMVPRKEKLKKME
UniProt P49917: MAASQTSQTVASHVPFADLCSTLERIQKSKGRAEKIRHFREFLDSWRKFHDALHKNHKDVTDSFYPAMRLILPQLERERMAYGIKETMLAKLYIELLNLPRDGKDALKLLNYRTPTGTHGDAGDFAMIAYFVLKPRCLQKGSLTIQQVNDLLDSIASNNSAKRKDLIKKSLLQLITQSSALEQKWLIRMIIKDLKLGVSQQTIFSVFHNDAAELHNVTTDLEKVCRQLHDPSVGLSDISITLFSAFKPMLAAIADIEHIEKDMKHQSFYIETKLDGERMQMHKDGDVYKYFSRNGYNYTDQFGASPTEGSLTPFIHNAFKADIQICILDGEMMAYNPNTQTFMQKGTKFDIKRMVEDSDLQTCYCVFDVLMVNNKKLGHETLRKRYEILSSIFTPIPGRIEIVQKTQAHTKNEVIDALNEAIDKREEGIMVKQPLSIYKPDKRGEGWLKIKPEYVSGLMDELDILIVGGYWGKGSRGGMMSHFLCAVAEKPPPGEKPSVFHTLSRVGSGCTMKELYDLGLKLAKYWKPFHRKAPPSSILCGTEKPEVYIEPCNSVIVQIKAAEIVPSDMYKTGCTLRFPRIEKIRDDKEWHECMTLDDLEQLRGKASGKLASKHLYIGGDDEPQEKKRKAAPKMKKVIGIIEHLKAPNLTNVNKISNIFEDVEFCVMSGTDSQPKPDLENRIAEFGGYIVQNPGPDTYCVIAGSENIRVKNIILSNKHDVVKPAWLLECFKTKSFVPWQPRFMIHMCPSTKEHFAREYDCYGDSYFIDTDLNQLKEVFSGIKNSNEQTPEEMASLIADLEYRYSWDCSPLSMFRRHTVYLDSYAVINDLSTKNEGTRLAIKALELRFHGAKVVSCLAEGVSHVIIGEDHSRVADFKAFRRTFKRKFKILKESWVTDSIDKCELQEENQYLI
UniProt Q9H0V9: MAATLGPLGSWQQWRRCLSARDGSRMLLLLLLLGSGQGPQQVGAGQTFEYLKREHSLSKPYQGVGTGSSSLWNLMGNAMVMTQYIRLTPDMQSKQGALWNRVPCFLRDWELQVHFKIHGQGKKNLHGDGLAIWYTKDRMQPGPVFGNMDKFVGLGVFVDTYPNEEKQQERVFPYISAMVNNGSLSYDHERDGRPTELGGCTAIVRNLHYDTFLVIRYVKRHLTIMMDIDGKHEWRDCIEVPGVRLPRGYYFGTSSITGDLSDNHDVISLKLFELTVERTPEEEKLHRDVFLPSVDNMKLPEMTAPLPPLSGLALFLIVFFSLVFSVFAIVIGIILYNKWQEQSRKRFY
UniProt O60294: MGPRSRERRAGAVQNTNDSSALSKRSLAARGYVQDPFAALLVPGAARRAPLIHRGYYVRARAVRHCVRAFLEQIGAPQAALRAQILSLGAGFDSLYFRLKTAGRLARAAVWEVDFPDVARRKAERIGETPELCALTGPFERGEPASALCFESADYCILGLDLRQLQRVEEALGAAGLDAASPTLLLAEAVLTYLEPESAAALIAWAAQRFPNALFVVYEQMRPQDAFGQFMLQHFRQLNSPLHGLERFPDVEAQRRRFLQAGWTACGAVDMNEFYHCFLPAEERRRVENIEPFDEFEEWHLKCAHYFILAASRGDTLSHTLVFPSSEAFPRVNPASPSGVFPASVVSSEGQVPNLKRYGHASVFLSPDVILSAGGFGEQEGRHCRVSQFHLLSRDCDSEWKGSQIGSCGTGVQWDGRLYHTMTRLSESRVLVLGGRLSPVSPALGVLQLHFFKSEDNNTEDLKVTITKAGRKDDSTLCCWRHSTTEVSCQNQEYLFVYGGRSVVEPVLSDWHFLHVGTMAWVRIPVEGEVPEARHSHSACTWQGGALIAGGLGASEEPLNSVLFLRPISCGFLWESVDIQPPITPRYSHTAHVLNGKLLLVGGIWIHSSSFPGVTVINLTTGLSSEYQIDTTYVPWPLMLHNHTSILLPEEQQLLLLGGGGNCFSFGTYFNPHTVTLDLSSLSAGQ
UniProt Q9Y608: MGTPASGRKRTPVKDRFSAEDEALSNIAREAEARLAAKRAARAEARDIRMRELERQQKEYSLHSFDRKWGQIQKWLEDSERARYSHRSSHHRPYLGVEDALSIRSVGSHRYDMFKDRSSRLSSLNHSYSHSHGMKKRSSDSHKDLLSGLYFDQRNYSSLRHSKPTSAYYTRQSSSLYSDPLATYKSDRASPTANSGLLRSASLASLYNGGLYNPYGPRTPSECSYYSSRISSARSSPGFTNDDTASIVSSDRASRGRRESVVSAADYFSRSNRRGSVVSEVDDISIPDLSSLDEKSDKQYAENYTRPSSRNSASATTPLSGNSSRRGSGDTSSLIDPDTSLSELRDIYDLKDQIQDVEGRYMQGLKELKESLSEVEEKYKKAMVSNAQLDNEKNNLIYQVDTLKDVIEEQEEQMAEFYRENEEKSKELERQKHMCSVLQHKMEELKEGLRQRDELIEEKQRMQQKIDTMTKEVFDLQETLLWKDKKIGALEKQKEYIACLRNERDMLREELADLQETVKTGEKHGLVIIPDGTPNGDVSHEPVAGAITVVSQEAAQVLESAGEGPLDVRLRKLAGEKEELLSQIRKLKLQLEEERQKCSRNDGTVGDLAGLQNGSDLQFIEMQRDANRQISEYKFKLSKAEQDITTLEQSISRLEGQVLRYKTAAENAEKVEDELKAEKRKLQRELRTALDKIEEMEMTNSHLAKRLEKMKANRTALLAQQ
UniProt Q8TCA0: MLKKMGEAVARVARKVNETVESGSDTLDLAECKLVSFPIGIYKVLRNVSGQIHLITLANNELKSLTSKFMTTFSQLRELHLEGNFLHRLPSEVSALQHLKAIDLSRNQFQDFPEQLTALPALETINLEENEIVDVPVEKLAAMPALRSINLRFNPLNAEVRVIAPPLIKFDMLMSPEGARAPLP
UniProt P18858, whole entry, looked up: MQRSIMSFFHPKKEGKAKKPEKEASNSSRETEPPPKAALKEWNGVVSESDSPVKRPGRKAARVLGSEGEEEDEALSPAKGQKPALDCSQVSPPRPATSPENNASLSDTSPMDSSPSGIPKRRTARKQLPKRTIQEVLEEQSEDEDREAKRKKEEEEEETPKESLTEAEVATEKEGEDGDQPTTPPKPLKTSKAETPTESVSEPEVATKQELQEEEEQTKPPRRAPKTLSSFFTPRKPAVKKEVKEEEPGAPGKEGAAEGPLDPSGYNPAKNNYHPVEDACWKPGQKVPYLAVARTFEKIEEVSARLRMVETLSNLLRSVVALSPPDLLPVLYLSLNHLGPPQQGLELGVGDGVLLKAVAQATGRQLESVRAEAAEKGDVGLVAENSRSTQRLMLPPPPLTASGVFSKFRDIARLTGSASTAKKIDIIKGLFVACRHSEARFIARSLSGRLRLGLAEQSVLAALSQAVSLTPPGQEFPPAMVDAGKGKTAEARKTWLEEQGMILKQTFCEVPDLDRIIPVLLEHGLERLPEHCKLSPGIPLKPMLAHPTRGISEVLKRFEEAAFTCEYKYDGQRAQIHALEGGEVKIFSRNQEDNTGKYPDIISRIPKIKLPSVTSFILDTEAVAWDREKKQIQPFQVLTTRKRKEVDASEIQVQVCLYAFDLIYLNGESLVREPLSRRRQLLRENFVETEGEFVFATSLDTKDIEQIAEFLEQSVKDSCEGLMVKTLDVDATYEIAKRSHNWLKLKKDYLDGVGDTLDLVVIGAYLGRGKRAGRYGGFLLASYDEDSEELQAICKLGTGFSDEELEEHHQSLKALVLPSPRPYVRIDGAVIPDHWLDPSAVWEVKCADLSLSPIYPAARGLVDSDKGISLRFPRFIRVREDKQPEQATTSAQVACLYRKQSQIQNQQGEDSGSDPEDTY

Key:
Test in all cases: log2 fold change, soluble protein after heating vs DMSO (PISA); higher = thermal stabilisation; K562 lysate, 10 uM; active = over 0.2 and 3.5 SD of the protein, either way, in both replicates (recomputed)
vemurafenib = compound: CCCS(=O)(=O)Nc1ccc(F)c(C(=O)c2c[nH]c3ncc(-c4ccc(Cl)cc4)cc23)c1F [vemurafenib]
Method in brief: (§1)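 A 30 min treatment with 10 μM compound was applied to crude K562 extract at 1 mg/mL protein in PBS pH 7.4 with 1 mM MgCl2. Heating for 3 min spanned 48°C-58°C, after which aliquots were pooled, adjusted to 0.5% NP-40 at 4°C and spun at 21,000xg for 90 min. TMTpro 16plex LC-MS/MS of the supernatant, with channel sums equalised, gave values recorded as log-two fold change in thermal stability against solvent controls, from duplicates.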

[1] = compound: CCCS(=O)(=O)Nc1ccc(F)c(C(=O)c2c[nH]c3ncc(Cl)cc23)c1F
Method in brief: as §1

barasertib = compound: CCN(CCCOc1ccc2c(Nc3cc(CC(=O)Nc4cccc(F)c4)[nH]n3)ncnc2c1)CCOP(=O)(O)O [barasertib]
Method in brief: as §1

[2] = compound: CC[C@@H]1C(=O)N(C)c2cnc(Nc3ccc(C(=O)NC4CCN(C)CC4)cc3OC)nc2N1C1CCCC1
Method in brief: as §1

volasertib = compound: CC[C@@H]1C(=O)N(C)c2cnc(Nc3ccc(C(=O)N[C@H]4CC[C@H](N5CCN(CC6CC6)CC5)CC4)cc3OC)nc2N1C(C)C [volasertib]
Method in brief: as §1

[3] = compound: CCn1c(C(=O)N(C2CC2)C2CC2)cc2c3c(ncn3C)c(Nc3cc(C)n(C)n3)nc21
Method in brief: as §1

[4] = compound: CCn1cc(-c2ccnc3[nH]c(-c4cccc(CN(C)C)c4)cc23)c(-c2ccc(NC(=O)N(C)C)cc2)n1
Method in brief: as §1

[5] = compound: CN1CCC(CNc2ccc3ncc(-c4cccc(OC(F)(F)F)c4)n3n2)CC1
Method in brief: as §1

saracatinib = compound: CN1CCN(CCOc2cc(OC3CCOCC3)c3c(Nc4c(Cl)ccc5c4OCO5)ncnc3c2)CC1 [saracatinib]
Method in brief: as §1

sotrastaurin = compound: CN1CCN(c2nc(C3=C(c4c[nH]c5ccccc45)C(=O)NC3=O)c3ccccc3n2)CC1 [sotrastaurin]
Method in brief: as §1

alvocidib = compound: CN1CC[C@H](c2c(O)cc(O)c3c(=O)cc(-c4ccccc4Cl)oc23)[C@H](O)C1 [alvocidib]
Method in brief: as §1

Tubastatin A = compound: CN1CCc2c(c3ccccc3n2Cc2ccc(C(=O)NO)cc2)C1 [Tubastatin A]
Method in brief: as §1

[6] = compound: CNC(=O)C1=CC=CC=C1NC2=NC(=NC=C2Cl)NC3=C(C=C(C=C3)N4CCOCC4)OC
Method in brief: as §1

defactinib = compound: CNC(=O)c1ccc(Nc2ncc(C(F)(F)F)c(NCc3nccnc3N(C)S(C)(=O)=O)n2)cc1 [defactinib]
Method in brief: as §1

[7] = compound: CNc1nc(-c2ccc3c(N)n[nH]c3c2)cc(N2C[C@@H](C(=O)NC3CCCCC3)CC[C@H]2C)n1
Method in brief: as §1

encorafenib = compound: COC(=O)N[C@@H](C)CNc1nccc(-c2cn(C(C)C)nc2-c2cc(Cl)cc(NS(C)(=O)=O)c2F)n1 [encorafenib]
Method in brief: as §1

[8] = compound: COC(=O)[C@H](CCSC)NC(=O)C1=C(C=C(C=C1)NC[C@H](CS)N)C2=CC=CC=C2
Method in brief: as §1

alisertib = compound: COc1cc(Nc2ncc3c(n2)-c2ccc(Cl)cc2C(c2c(F)cccc2OC)=NC3)ccc1C(=O)O [alisertib]
Method in brief: as §1

[9] = compound: COc1cc2nc(-c3cc(F)ccc3O)nc(N[C@@H]3CNC[C@H]3C(C)(C)O)c2cc1OC
Method in brief: as §1

gefitinib = compound: COc1cc2ncnc(Nc3ccc(F)c(Cl)c3)c2cc1OCCCN1CCOCC1 [gefitinib]
Method in brief: as §1

| Target | log2 fold change (vemurafenib) | log2 fold change [1] | log2 fold change (barasertib) | log2 fold change [2] | log2 fold change (volasertib) | log2 fold change [3] | log2 fold change [4] | log2 fold change [5] | log2 fold change (saracatinib) | log2 fold change (sotrastaurin) | log2 fold change (alvocidib) | log2 fold change (Tubastatin A) | log2 fold change [6] | log2 fold change (defactinib) | log2 fold change [7] | log2 fold change (encorafenib) | log2 fold change [8] | log2 fold change (alisertib) | log2 fold change [9] | log2 fold change (gefitinib) |
| --- | --- | --- | --- | --- | --- | --- | --- | --- | --- | --- | --- | --- | --- | --- | --- | --- | --- | --- | --- | --- |
| LIAS (UniProt O43766) | inactive: 0.001 | inactive: 0.027 | inactive: -0.027 | inactive: -0.02 | inactive: 0.014 | inactive: -0.035 | inactive: -0.033 | inactive: 0.072 | inactive: -0.009 | inactive: -0.021 | inactive: -0.024 | inactive: 0.039 | inactive: 0.024 | inactive: -0.013 | inactive: 0.089 | inactive: -0.008 | inactive: -0.032 | inactive: -0.001 | inactive: -0.016 | inactive: -0.007 |
| LHPP (UniProt Q9H008) | inactive: 0.07 | inactive: -0.008 | inactive: -0.1 | inactive: 0.026 | inactive: 0.015 | inactive: -0.046 | inactive: -0.239 | inactive: 0.119 | inactive: 0.042 | inactive: -0.011 | inactive: -0.017 | inactive: 0.047 | inactive: -0.068 | inactive: -0.008 | inactive: -0.023 | inactive: -0.016 | inactive: -0.097 | inactive: 0.005 | inactive: 0.052 | inactive: -0.06 |
| LRCH3 (UniProt Q96II8) | inactive: -0.009 | inactive: -0.01 | inactive: 0.03 | inactive: -0.051 | inactive: -0.058 | inactive: -0.022 | inactive: 0.022 | inactive: -0.031 | inactive: 0.004 | inactive: -0.047 | inactive: 0 | inactive: -0.238 | inactive: -0.003 | inactive: -0.002 | inactive: 0.069 | inactive: 0.021 | inactive: 0.045 | inactive: 0.021 | inactive: -0.012 | inactive: -0.075 |
| LRSAM1 (UniProt Q6UWE0) | inactive: -0.005 | inactive: -0.003 | inactive: 0.04 | inactive: 0.04 | inactive: -0.006 | inactive: 0.002 | inactive: -0.046 | inactive: 0.016 | inactive: -0.047 | inactive: 0.005 | inactive: -0.051 | inactive: -0.002 | inactive: 0.011 | inactive: -0.006 | inactive: 0.045 | inactive: 0.009 | inactive: -0.07 | inactive: -0.021 | inactive: 0.007 | inactive: 0.015 |
| LONP1 (UniProt P36776) | inactive: -0.015 | inactive: -0.009 | inactive: -0.015 | inactive: 0.016 | inactive: -0.037 | inactive: -0.007 | inactive: -0.02 | inactive: 0.03 | inactive: -0.027 | inactive: -0.016 | inactive: 0.018 | inactive: 0.027 | inactive: -0.015 | inactive: 0.014 | inactive: 0.006 | inactive: 0.006 | inactive: -0.035 | inactive: 0.005 | inactive: -0.029 | inactive: -0.002 |
| LPCAT3 (UniProt Q6P1A2) | inactive: -0.178 | inactive: 0.016 | inactive: 0.104 | inactive: 0.104 | inactive: 0.041 | inactive: 0.128 | inactive: -0.081 | inactive: -0.112 | inactive: -0.035 | inactive: 0.167 | inactive: 0.003 | inactive: 0.008 | inactive: 0.007 | inactive: 0.051 | inactive: -0.163 | inactive: 0.023 | inactive: 0.131 | inactive: 0.021 | inactive: 0.023 | inactive: -0.062 |
| LIG4 (UniProt P49917) | inactive: 0.041 | inactive: -0.034 | inactive: -0.04 | inactive: -0.087 | inactive: -0.182 | inactive: -0.027 | inactive: -0.105 | inactive: 0.018 | inactive: 0.027 | inactive: 0.048 | inactive: 0.02 | inactive: -0.025 | inactive: -0.04 | inactive: 0.063 | inactive: 0.005 | inactive: 0.048 | active: 0.415 | inactive: -0.049 | inactive: -0.096 | inactive: -0.069 |
| LMAN2L isoform 2 (UniProt Q9H0V9) | inactive: -0.017 | inactive: 0.007 | inactive: 0.037 | inactive: 0.034 | inactive: -0.004 | inactive: -0.042 | inactive: -0.072 | inactive: -0.033 | inactive: 0.003 | inactive: 0.009 | inactive: 0.018 | inactive: 0.05 | inactive: 0.014 | inactive: -0.027 | inactive: 0.004 | inactive: 0.028 | inactive: -0.032 | inactive: -0.043 | inactive: 0.023 | inactive: -0.029 |
| LCMT2 (UniProt O60294) | inactive: 0.173 | inactive: 0.133 | inactive: 0.085 | inactive: -0.037 | inactive: -0.074 | inactive: 0.011 | inactive: -0.046 | inactive: -0.057 | inactive: 0.073 | inactive: -0.058 | inactive: 0.033 | inactive: 0.098 | inactive: -0.02 | inactive: -0.102 | inactive: -0.029 | inactive: 0.039 | inactive: -0.041 | inactive: -0.041 | inactive: -0.022 | inactive: -0.069 |
| LRRC14 (UniProt Q15048) | inactive: 0.025 | inactive: 0.085 | inactive: -0.033 | inactive: -0.143 | inactive: -0.038 | inactive: 0.088 | inactive: -0.079 | inactive: 0.083 | inactive: 0.071 | inactive: 0.028 | inactive: -0.065 | inactive: -0.152 | inactive: -0.009 | inactive: -0.038 | inactive: -0.007 | inactive: 0.224 | inactive: 0.044 | inactive: 0.015 | inactive: -0.056 | inactive: 0.007 |
| LRRFIP2 (UniProt Q9Y608) | inactive: 0.018 | inactive: 0.005 | inactive: -0.013 | inactive: 0.041 | inactive: 0.004 | inactive: 0.009 | inactive: 0.063 | inactive: 0.04 | inactive: 0.03 | inactive: -0.018 | inactive: -0.033 | inactive: 0.009 | inactive: -0.031 | inactive: -0.009 | inactive: 0.004 | inactive: 0.009 | inactive: -0.027 | inactive: -0.015 | inactive: 0.001 | inactive: 0.015 |
| LRRC20 (UniProt Q8TCA0) | inactive: -0.029 | inactive: 0.019 | inactive: 0.084 | inactive: 0.051 | inactive: -0.018 | inactive: 0.005 | inactive: -0.015 | inactive: -0.03 | inactive: -0.033 | inactive: -0.017 | inactive: 0.035 | inactive: -0.006 | inactive: 0.041 | inactive: 0.047 | inactive: 0.005 | inactive: -0.012 | inactive: -0.057 | inactive: 0.047 | inactive: -0.018 | inactive: -0.126 |
| LPCAT1 (UniProt Q8NF37) | inactive: -0.009 | inactive: 0.07 | inactive: 0.012 | inactive: 0.037 | inactive: 0.097 | inactive: -0.072 | active: -0.39 | inactive: 0.099 | inactive: 0.079 | inactive: 0.032 | inactive: -0.117 | inactive: 0.117 | inactive: 0.067 | inactive: 0.045 | inactive: 0.097 | inactive: 0.037 | inactive: -0.063 | inactive: 0.07 | inactive: -0.01 | inactive: -0.009 |
| LIG1 (UniProt P18858) | inactive: 0.003 | inactive: -0.004 | inactive: -0.007 | inactive: 0.016 | inactive: -0.012 | inactive: -0.009 | inactive: 0.084 | inactive: -0.008 | inactive: 0.013 | inactive: -0.004 | inactive: -0.013 | inactive: -0.002 | inactive: -0.008 | inactive: -0.01 | inactive: -0.026 | inactive: 0.005 | inactive: 0.016 | inactive: 0.009 | inactive: 0.008 | inactive: 0.02 |
| LRRC47 (UniProt Q8N1G4) | inactive: -0.014 | inactive: -0.001 | inactive: -0.009 | inactive: -0.012 | inactive: 0.011 | inactive: -0.002 | inactive: -0.055 | inactive: 0.049 | inactive: 0.005 | inactive: -0.024 | inactive: -0.007 | inactive: 0.051 | inactive: -0.02 | inactive: -0.003 | inactive: -0.002 | inactive: -0.016 | inactive: -0.002 | inactive: 0.009 | inactive: -0.008 | inactive: -0.048 |
| LSM7 (UniProt Q9UK45) | inactive: 0.023 | inactive: 0 | inactive: 0.071 | inactive: 0.061 | inactive: 0.043 | inactive: 0 | inactive: -0.125 | inactive: 0.009 | inactive: -0.007 | inactive: -0.027 | inactive: -0.024 | inactive: 0.04 | inactive: -0.026 | inactive: -0.022 | inactive: 0.051 | inactive: -0.025 | inactive: 0.003 | inactive: 0 | inactive: -0.003 | inactive: -0.051 |

Reprinted at random: 2 records from the list.

| Target | log2 fold change (vemurafenib) | log2 fold change [1] | log2 fold change (barasertib) | log2 fold change [2] | log2 fold change (volasertib) | log2 fold change [3] | log2 fold change [4] | log2 fold change [5] | log2 fold change (saracatinib) | log2 fold change (sotrastaurin) | log2 fold change (alvocidib) | log2 fold change (Tubastatin A) | log2 fold change [6] | log2 fold change (defactinib) | log2 fold change [7] | log2 fold change (encorafenib) | log2 fold change [8] | log2 fold change (alisertib) | log2 fold change [9] | log2 fold change (gefitinib) |
| --- | --- | --- | --- | --- | --- | --- | --- | --- | --- | --- | --- | --- | --- | --- | --- | --- | --- | --- | --- | --- |
| LCMT2 (UniProt O60294) | inactive: 0.173 | inactive: 0.133 | inactive: 0.085 | inactive: -0.037 | inactive: -0.074 | inactive: 0.011 | inactive: -0.046 | inactive: -0.057 | inactive: 0.073 | inactive: -0.058 | inactive: 0.033 | inactive: 0.098 | inactive: -0.02 | inactive: -0.102 | inactive: -0.029 | inactive: 0.039 | inactive: -0.041 | inactive: -0.041 | inactive: -0.022 | inactive: -0.069 |
| LRCH3 (UniProt Q96II8) | inactive: -0.009 | inactive: -0.01 | inactive: 0.03 | inactive: -0.051 | inactive: -0.058 | inactive: -0.022 | inactive: 0.022 | inactive: -0.031 | inactive: 0.004 | inactive: -0.047 | inactive: 0 | inactive: -0.238 | inactive: -0.003 | inactive: -0.002 | inactive: 0.069 | inactive: 0.021 | inactive: 0.045 | inactive: 0.021 | inactive: -0.012 | inactive: -0.075 |
